Reference: the supplement of paper PMC12067093, “Discovery and optimisation of a covalent ligand for TRIM25 and its application to targeted protein ubiquitination” (Chemical Science, 2025)
The other results are listed elsewhere or left out.

Chains of the proteins cited; added tags and fusions are not shown. Lines headed by an entry give the natural chain unless they say otherwise; changes in a name come on top.
UniProt P38398, whole entry, looked up: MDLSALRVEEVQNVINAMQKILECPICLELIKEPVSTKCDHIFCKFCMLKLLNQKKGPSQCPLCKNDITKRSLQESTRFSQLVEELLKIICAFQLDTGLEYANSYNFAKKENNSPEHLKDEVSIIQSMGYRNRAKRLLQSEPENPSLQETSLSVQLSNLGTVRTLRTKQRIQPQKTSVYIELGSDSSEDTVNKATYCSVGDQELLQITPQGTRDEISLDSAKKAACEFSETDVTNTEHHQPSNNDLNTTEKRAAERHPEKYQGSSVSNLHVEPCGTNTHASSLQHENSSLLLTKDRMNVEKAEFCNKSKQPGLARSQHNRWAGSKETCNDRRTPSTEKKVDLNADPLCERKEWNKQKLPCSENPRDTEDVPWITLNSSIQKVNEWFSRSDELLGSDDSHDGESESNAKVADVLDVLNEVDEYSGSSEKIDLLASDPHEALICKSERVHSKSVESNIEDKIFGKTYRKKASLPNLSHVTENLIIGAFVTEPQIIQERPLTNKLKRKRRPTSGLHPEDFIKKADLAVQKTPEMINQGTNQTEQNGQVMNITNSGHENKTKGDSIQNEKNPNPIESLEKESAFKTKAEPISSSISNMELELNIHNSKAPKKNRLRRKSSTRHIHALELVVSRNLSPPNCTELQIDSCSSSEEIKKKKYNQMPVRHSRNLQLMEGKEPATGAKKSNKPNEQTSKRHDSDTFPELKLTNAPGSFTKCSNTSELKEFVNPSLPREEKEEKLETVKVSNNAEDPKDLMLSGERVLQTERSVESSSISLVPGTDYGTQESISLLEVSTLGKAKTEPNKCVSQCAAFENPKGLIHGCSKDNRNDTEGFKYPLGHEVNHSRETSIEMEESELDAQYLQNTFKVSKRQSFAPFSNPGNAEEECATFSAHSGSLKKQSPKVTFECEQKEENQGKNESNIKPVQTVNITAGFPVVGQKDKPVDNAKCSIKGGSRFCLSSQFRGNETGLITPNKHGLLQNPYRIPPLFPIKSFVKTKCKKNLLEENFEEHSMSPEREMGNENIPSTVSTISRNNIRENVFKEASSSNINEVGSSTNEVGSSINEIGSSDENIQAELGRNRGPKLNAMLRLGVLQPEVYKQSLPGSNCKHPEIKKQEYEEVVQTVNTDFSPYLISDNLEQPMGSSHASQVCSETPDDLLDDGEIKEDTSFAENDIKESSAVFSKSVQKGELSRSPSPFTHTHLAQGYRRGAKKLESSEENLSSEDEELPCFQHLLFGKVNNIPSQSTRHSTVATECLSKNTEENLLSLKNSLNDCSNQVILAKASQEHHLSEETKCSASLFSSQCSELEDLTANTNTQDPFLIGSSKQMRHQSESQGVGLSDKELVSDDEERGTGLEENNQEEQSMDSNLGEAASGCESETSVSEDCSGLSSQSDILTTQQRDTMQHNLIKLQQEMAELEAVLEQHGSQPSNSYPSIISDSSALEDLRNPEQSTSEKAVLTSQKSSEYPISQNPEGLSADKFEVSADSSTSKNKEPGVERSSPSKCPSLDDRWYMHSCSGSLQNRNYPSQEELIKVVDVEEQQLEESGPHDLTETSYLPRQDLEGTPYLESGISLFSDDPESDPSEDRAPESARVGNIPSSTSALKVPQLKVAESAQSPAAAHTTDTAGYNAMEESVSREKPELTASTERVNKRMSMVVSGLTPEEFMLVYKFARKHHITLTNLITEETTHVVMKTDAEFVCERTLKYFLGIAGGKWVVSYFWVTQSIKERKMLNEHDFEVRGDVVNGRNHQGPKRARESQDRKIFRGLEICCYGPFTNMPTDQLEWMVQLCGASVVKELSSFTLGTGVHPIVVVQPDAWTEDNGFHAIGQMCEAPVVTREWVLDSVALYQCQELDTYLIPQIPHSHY
UniProt Q5BKX5: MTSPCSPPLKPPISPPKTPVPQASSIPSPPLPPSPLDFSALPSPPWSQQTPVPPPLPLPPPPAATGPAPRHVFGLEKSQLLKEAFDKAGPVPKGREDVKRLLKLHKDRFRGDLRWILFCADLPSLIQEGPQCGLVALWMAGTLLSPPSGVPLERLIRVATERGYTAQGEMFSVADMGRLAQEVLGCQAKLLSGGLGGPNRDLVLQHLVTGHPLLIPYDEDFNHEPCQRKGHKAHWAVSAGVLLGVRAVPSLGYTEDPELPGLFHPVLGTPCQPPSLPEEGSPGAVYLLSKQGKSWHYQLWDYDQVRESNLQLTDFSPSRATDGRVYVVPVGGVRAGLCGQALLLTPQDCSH
UniProt Q9H7E9: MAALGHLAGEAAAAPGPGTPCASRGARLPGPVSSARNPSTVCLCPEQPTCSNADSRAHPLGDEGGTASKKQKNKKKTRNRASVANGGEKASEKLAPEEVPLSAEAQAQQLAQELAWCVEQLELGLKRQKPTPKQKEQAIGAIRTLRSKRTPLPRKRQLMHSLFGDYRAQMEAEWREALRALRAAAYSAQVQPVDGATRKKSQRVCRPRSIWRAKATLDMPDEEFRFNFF
UniProt A6NDU8: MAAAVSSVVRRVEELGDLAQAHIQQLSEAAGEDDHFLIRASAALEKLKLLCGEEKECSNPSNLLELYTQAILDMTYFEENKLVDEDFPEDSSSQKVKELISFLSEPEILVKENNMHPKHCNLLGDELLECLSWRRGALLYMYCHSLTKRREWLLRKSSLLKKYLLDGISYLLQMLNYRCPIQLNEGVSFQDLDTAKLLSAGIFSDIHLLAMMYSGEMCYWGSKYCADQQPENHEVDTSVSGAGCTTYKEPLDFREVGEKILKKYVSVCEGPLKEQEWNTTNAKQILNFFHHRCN
UniProt Q9H6K1: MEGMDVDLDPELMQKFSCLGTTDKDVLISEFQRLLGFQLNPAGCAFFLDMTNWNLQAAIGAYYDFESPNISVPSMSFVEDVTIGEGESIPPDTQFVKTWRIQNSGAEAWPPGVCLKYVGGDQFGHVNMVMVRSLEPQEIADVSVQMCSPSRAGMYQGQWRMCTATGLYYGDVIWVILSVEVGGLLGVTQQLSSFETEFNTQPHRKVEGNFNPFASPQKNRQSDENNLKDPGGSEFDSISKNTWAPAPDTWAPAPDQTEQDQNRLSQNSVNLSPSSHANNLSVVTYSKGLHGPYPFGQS
UniProt P01024, whole entry, looked up: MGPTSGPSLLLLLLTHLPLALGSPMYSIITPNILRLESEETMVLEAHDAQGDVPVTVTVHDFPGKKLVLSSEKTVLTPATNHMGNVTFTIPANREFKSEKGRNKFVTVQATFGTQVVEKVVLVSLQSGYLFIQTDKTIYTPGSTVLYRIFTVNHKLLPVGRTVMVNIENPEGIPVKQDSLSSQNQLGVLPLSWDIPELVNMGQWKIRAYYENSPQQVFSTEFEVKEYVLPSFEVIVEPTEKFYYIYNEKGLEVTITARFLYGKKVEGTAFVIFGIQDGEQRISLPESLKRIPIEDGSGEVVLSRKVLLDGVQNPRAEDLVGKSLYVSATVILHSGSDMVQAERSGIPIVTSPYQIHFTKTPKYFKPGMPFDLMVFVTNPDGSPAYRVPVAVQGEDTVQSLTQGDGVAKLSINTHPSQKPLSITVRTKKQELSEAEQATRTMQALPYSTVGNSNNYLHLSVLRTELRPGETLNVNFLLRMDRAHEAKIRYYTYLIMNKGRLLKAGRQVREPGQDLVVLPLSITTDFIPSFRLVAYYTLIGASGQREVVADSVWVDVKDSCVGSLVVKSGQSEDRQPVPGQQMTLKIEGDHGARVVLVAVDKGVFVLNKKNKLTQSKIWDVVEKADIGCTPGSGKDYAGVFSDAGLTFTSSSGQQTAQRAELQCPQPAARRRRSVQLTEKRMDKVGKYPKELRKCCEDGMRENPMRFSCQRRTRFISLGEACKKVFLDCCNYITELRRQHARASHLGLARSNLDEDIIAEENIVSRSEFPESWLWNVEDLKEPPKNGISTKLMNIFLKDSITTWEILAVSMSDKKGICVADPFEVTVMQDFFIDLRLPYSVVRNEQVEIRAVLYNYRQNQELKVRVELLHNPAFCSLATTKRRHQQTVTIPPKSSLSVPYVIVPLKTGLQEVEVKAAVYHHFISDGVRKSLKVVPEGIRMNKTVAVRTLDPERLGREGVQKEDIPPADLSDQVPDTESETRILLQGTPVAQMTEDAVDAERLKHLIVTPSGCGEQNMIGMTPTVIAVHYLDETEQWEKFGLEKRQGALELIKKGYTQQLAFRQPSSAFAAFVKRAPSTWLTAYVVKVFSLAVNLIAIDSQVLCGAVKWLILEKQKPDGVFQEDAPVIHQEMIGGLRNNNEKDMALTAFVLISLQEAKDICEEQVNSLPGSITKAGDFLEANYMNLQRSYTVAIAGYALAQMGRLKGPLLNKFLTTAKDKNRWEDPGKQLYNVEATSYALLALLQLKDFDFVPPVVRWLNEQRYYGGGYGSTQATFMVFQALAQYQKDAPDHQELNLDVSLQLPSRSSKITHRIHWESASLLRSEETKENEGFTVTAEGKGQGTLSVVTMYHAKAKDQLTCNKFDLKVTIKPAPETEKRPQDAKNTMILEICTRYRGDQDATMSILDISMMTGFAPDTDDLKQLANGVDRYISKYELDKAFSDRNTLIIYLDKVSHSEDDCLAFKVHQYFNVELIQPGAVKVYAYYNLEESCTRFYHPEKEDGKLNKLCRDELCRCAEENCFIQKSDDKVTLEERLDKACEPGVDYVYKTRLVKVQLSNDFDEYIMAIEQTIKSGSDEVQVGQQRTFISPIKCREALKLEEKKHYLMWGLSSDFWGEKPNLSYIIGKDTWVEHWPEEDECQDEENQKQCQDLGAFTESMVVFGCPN
UniProt Q86YS7: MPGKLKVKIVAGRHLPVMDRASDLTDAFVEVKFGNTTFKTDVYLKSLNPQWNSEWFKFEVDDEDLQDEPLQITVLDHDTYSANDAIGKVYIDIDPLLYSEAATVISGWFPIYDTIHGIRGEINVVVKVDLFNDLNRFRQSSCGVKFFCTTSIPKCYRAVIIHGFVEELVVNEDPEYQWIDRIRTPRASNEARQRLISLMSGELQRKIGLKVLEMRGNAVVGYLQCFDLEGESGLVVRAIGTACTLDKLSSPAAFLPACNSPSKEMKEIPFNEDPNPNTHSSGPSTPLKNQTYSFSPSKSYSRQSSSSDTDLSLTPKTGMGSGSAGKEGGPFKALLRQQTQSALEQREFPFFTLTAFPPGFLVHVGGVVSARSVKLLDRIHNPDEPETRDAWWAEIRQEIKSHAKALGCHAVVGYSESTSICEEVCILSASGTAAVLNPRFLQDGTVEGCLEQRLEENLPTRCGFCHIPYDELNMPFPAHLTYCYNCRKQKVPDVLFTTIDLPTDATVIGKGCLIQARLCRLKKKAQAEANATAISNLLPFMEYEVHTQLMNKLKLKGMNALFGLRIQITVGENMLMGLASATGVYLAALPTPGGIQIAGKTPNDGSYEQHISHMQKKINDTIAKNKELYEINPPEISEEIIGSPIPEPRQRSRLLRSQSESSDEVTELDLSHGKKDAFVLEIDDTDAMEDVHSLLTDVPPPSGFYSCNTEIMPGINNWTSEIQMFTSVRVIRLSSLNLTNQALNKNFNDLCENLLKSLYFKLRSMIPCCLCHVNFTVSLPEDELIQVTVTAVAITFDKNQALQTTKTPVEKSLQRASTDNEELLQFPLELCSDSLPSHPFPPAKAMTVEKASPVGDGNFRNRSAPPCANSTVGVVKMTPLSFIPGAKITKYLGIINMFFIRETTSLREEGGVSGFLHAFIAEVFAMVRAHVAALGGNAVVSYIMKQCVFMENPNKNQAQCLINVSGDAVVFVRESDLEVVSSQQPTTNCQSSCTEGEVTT
UniProt Q8N9M1: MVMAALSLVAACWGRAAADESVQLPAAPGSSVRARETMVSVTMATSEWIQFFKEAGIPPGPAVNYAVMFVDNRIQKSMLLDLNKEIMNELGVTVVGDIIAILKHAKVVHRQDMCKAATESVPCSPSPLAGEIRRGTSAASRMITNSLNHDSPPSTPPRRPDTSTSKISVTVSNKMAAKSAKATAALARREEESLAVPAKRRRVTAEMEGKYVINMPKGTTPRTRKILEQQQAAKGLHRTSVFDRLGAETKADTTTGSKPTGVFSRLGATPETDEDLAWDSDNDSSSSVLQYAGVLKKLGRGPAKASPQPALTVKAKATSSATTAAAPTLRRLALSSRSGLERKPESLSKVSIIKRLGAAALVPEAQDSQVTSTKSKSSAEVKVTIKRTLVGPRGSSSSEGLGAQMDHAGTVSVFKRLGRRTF
UniProt Q8TDN6: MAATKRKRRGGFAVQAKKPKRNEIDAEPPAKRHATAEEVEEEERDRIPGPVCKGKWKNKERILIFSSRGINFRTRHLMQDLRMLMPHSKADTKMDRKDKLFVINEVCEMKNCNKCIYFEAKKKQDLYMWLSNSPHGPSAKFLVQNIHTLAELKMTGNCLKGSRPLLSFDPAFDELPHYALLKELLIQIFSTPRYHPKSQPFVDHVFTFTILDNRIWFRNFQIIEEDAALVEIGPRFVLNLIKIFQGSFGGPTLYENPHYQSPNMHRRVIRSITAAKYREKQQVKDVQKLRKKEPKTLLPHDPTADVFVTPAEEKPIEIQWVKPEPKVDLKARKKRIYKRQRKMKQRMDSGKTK

Compound: CC1Cc2ccccc2N1C(=O)C1CCCN(C1)C(=O)CCl (mixture of isomers) [TRIM25 ligand 11 (diastereomer mixture)]
Test: probe-labelled cysteine peptide fold change vs DMSO (competition) (log2 fold change); higher = less target engagement (more negative = stronger competition)
Details: 10 µM; THP-1; incubation time: 4 h
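Note: competitive chemoproteomic profiling in live THP-1 cells with an iodoacetamide desthiobiotin (IA-DTB) probe, comparing probe-labelled peptide intensities in compound-treated cells against DMSO-treated controls.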

Row | Target | probe-labelled cysteine peptide fold change
1 | CAD_P27708_2161_FGSTQEYEACFGQFILTPHIMTR (UniProt P27708) | -0.0115
2 | BRCA1_P38398_226_AACEFSETDVTNTEHHQPSNNDLNTTEK (UniProt P38398) | 0.105
3 | BST1_Q10588_83_VALDKDPCSVLPSDYDLFINLSR (UniProt Q10588) | -0.0736
4 | BUD31_P41223_101_KQGYENLCCLR (UniProt P41223) | -0.06
5 | BUD31_P41223_137_IIECTHCGCR (UniProt P41223) | -0.108
6 | CABIN1_Q9Y6J0_717_AVVHLLRPTLCTSGFDR (UniProt Q9Y6J0) | -0.047
7 | BRAP_Q7Z569_110_ECINAAPDSPSK (UniProt Q7Z569) | -0.16
8 | CAMK2D_Q13557_116_EYYSEADASHCIQQILESVNHCHLNGIVHR (UniProt Q13557) | -0.0701
9 | BRD7_Q9NPI1_646_KTDVAECGPGGS (UniProt Q9NPI1) | -0.034
10 | C20orf27_Q9GZN8_131_EGVLKEEILLACEGGTGTCVR (UniProt Q9GZN8) | -0.145
11 | CAD_P27708_1682_QDVEALWENMAVIDCFASDHAPHTLEEK (UniProt P27708) | -0.0372
12 | C2CD2L_O14523_359_SSSCGDTELLGQATLPVGSPSRPLSR (UniProt O14523) | 0.26
13 | C19orf54_Q5BKX5_226_DLVLQHLVTGHPLLIPYDEDFNHEPCQR (UniProt Q5BKX5) | 0.129
14 | C2orf69_Q8N8R5_267_GCVVLNQLLFELK (UniProt Q8N8R5) | 0.0349
15 | BSG_P35613_203_VDSDDQWGEYSCVFLPEPMGTANIQLHGPPR (UniProt P35613) | 0.108
16 | C12orf10_Q9HB07_62_IGTHNGTFHCDEALACALLR (UniProt Q9HB07) | -0.0383
17 | C8orf33_Q9H7E9_21_AALGHLAGEAAAAPGPGTPCASR (UniProt Q9H7E9) | -0.136
18 | CAND1_Q86VP6_571_DLFTCTIK (UniProt Q86VP6) | 0.116
19 | BRD7_Q9NPI1_574_LSTRPPPNMICLLGPSYR (UniProt Q9NPI1) | -0.0869
20 | C16orf62_Q7Z3J2_665_SMFCNLEPVLVQLIHSVNR (UniProt Q7Z3J2) | 0.0245

Row | Target | probe-labelled cysteine peptide fold change
21 | C11orf54_Q9H0W9_187_TGPLNFVTCMR (UniProt Q9H0W9) | -0.102
22 | C11orf68_Q9H3H3_214_QVICVYTDDFTDR (UniProt Q9H3H3) | -0.0475
23 | C3orf58_Q8NDZ4_402_DGRLEALLDECANPK (UniProt Q8NDZ4) | -0.0851
24 | C5orf51_A6NDU8_120+130_HCNLLGDELLECLSWR (UniProt A6NDU8) | 0.467
25 | BPTF_Q12830_1969_IICPIGVPETPK (UniProt Q12830) | 0.0568
26 | C6orf106_Q9H6K1_18_FSCLGTTDK (UniProt Q9H6K1) | 0.0921
27 | BTK_Q06187_154_YHPCFWIDGQYLCCSQTAK (UniProt Q06187) | -0.132
28 | C3_P01024_873_VRVELLHNPAFCSLATTK (UniProt P01024) | 0.0395
29 | BPTF_Q12830_2697_MIVCNQVMK (UniProt Q12830) | -0.0687
30 | C2CD5_Q86YS7_486_CGFCHIPYDELNMPFPAHLTYCYNCR (UniProt Q86YS7) | 0.141
31 | C16orf62_Q7Z3J2_454_ECDESGFPK (UniProt Q7Z3J2) | -0.178
32 | BRAP_Q7Z569_519_ETCDQK (UniProt Q7Z569) | -0.105
33 | C12orf4_Q9NQ89_55_LMLLHSLPCFIEK (UniProt Q9NQ89) | -0.0485
34 | C19orf47_Q8N9M1_123_AATESVPCSPSPLAGEIR (UniProt Q8N9M1) | 0.15
35 | C16orf62_Q7Z3J2_321_LTCMIR (UniProt Q7Z3J2) | -0.0976
36 | BRIX1_Q8TDN6_52_IPGPVCK (UniProt Q8TDN6) | -0.00413
37 | BRMS1_Q9HCU9_136_NKYECELQGAK (UniProt Q9HCU9) | -0.141
38 | CAD_P27708_986_TIMVNYNPETVSTDYDMCDR (UniProt P27708) | -0.138
39 | C3orf38_Q5JPI3_259_CPFVENTWK (UniProt Q5JPI3) | 0.0213

Same assay, conditions: 50 µM; THP-1; incubation time: 4 h

Row | Target | probe-labelled cysteine peptide fold change
40 | CAD_P27708_2161_FGSTQEYEACFGQFILTPHIMTR (UniProt P27708) | 0.0109
41 | BRCA1_P38398_226_AACEFSETDVTNTEHHQPSNNDLNTTEK (UniProt P38398) | -0.274
42 | BST1_Q10588_83_VALDKDPCSVLPSDYDLFINLSR (UniProt Q10588) | -0.143
43 | BUD31_P41223_101_KQGYENLCCLR (UniProt P41223) | 0.0769
44 | BUD31_P41223_137_IIECTHCGCR (UniProt P41223) | 0.0271
45 | CABIN1_Q9Y6J0_717_AVVHLLRPTLCTSGFDR (UniProt Q9Y6J0) | -0.0291
46 | BRAP_Q7Z569_110_ECINAAPDSPSK (UniProt Q7Z569) | -0.0832
47 | CAMK2D_Q13557_116_EYYSEADASHCIQQILESVNHCHLNGIVHR (UniProt Q13557) | -0.0602
48 | BRD7_Q9NPI1_646_KTDVAECGPGGS (UniProt Q9NPI1) | -0.0794
49 | C20orf27_Q9GZN8_131_EGVLKEEILLACEGGTGTCVR (UniProt Q9GZN8) | 0.0943
50 | CAD_P27708_1682_QDVEALWENMAVIDCFASDHAPHTLEEK (UniProt P27708) | -0.318
51 | C2CD2L_O14523_359_SSSCGDTELLGQATLPVGSPSRPLSR (UniProt O14523) | 0.244
52 | C19orf54_Q5BKX5_226_DLVLQHLVTGHPLLIPYDEDFNHEPCQR (UniProt Q5BKX5) | -0.00339
53 | C2orf69_Q8N8R5_267_GCVVLNQLLFELK (UniProt Q8N8R5) | 0.0787
54 | BSG_P35613_203_VDSDDQWGEYSCVFLPEPMGTANIQLHGPPR (UniProt P35613) | 0.134
55 | C12orf10_Q9HB07_62_IGTHNGTFHCDEALACALLR (UniProt Q9HB07) | -0.259
56 | C8orf33_Q9H7E9_21_AALGHLAGEAAAAPGPGTPCASR (UniProt Q9H7E9) | -0.197
57 | CAND1_Q86VP6_571_DLFTCTIK (UniProt Q86VP6) | 0.0279
58 | BRD7_Q9NPI1_574_LSTRPPPNMICLLGPSYR (UniProt Q9NPI1) | -0.299
59 | C16orf62_Q7Z3J2_665_SMFCNLEPVLVQLIHSVNR (UniProt Q7Z3J2) | 0.147

Row | Target | probe-labelled cysteine peptide fold change
60 | C11orf54_Q9H0W9_187_TGPLNFVTCMR (UniProt Q9H0W9) | -0.0753
61 | C11orf68_Q9H3H3_214_QVICVYTDDFTDR (UniProt Q9H3H3) | -0.00703
62 | C3orf58_Q8NDZ4_402_DGRLEALLDECANPK (UniProt Q8NDZ4) | 0.0696
63 | C5orf51_A6NDU8_120+130_HCNLLGDELLECLSWR (UniProt A6NDU8) | 0.253
64 | BPTF_Q12830_1969_IICPIGVPETPK (UniProt Q12830) | 0.0296
65 | C6orf106_Q9H6K1_18_FSCLGTTDK (UniProt Q9H6K1) | -0.0712
66 | BTK_Q06187_154_YHPCFWIDGQYLCCSQTAK (UniProt Q06187) | -0.193
67 | C3_P01024_873_VRVELLHNPAFCSLATTK (UniProt P01024) | 0.0214
68 | BPTF_Q12830_2697_MIVCNQVMK (UniProt Q12830) | -0.135
69 | C2CD5_Q86YS7_486_CGFCHIPYDELNMPFPAHLTYCYNCR (UniProt Q86YS7) | 0.0706
70 | C16orf62_Q7Z3J2_454_ECDESGFPK (UniProt Q7Z3J2) | -0.0456
71 | BRAP_Q7Z569_519_ETCDQK (UniProt Q7Z569) | -0.0062
72 | C12orf4_Q9NQ89_55_LMLLHSLPCFIEK (UniProt Q9NQ89) | 0.0867
73 | C19orf47_Q8N9M1_123_AATESVPCSPSPLAGEIR (UniProt Q8N9M1) | 0.0526
74 | C16orf62_Q7Z3J2_321_LTCMIR (UniProt Q7Z3J2) | -0.0998
75 | BRIX1_Q8TDN6_52_IPGPVCK (UniProt Q8TDN6) | -0.114
76 | BRMS1_Q9HCU9_136_NKYECELQGAK (UniProt Q9HCU9) | -0.0151
77 | CAD_P27708_986_TIMVNYNPETVSTDYDMCDR (UniProt P27708) | -0.21
78 | C3orf38_Q5JPI3_259_CPFVENTWK (UniProt Q5JPI3) | -0.0363
